In patent CN116963747A:
No constants are given. Whether binding was seen depends on the method and setting. In cells and extracts the contact can be indirect. Some binding calls cover weakened binding; strength is not graded here. For some assays here: Tags and fused reporters may be left off the sequences shown.

Amino acid sequences for entries named in this document (tags omitted). A change or cut given only in a name is not applied to a line headed by its entry. Residues count along the entry.
UniProt P29350: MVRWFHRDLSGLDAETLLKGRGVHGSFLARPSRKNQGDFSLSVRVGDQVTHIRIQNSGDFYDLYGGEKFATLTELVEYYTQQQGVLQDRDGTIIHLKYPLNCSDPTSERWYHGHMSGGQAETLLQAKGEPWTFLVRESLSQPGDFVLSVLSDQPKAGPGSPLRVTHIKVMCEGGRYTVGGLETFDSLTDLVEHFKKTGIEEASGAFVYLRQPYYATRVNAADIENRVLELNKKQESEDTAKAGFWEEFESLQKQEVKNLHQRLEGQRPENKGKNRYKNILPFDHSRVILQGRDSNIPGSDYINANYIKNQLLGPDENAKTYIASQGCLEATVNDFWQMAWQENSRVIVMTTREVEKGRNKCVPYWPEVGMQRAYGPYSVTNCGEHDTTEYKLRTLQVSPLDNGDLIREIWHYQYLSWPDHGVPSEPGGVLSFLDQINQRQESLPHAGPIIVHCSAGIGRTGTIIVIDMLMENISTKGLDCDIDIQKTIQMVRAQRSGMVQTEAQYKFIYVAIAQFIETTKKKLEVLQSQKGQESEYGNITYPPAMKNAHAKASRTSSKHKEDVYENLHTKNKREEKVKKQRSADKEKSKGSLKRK
UniProt O75022, residues 465-631: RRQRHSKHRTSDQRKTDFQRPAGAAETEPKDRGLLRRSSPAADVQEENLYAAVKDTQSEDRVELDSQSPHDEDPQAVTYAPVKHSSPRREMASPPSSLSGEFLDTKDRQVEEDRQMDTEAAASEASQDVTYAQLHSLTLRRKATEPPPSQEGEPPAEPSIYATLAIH
UniProt P78310: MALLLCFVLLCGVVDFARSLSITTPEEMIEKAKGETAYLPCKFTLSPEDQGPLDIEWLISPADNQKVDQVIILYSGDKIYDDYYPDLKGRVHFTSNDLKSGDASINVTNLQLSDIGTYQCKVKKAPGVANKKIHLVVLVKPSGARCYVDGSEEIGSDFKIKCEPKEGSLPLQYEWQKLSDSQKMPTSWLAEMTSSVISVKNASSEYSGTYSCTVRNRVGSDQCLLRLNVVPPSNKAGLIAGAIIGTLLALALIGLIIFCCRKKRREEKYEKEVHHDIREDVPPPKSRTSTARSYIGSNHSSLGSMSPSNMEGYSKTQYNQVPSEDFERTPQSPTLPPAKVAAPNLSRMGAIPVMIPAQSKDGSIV

How the values were obtained:
[1] = target: T1, 经纯化的GST-TRAF2 (MyBioSource, MBS515700) (UniProt Q12933); assay: in vitro pull-down: purified GST-TRAF2 with B3ICDhFc on Dynabeads protein A
T1 sequence (looked up): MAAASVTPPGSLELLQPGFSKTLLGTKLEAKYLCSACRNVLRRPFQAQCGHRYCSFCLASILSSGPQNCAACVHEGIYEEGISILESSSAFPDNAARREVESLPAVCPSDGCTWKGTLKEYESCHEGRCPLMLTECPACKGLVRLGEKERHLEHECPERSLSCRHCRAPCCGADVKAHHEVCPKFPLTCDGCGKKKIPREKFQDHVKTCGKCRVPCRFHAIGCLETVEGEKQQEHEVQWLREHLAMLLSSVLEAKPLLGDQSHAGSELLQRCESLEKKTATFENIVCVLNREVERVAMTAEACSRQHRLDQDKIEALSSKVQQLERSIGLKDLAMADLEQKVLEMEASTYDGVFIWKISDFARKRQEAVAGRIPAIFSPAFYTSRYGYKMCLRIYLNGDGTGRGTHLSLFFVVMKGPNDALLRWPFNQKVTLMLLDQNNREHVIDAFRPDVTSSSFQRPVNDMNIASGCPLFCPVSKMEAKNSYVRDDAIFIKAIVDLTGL

[2] = target: T1, 经纯化的GST-TRAF2 (MyBioSource, MBS515700); assay: in vitro pull-down: purified GST-TRAF2 with purified B3ICDhFc
SHP-1 [3] = target: SHP-1 (UniProt P29350); assay: co-IP of exogenous SHP-1 with CARECD-B3ICDhFc, with Lyn, in 293T cells
SHP-1 [4] = target: SHP-1 (UniProt P29350); assay: co-IP of SHP-1 with TRAF2 and CARECD-B3ICDhFc in 293T cells, with or without Lyn
TRAF2 (human) = target: T2, TRAF2 (human) (UniProt Q12933); assay: co-IP of SHP-1 or SHP-2 with TRAF2 and CARECD-B3ICDhFc in 293T cells
T2 sequence (looked up): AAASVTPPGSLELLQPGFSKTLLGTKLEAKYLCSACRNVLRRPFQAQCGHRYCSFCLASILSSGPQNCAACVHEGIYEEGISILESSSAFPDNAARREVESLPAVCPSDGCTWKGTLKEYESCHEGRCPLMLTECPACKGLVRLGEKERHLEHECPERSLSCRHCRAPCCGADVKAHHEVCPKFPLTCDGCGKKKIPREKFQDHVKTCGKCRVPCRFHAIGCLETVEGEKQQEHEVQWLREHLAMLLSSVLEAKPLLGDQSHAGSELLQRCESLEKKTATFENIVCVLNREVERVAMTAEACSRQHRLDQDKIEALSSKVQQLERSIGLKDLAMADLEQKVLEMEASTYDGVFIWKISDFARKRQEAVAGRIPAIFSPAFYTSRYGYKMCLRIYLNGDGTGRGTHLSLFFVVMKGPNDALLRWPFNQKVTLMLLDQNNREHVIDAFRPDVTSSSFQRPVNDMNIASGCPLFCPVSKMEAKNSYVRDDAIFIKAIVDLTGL

Row | binding [1] | binding [2] | binding (SHP-1 [3]) | binding (SHP-1 [4]) | binding (TRAF2 (human)) | Substance
1 | binds | binds | – | – | – | B3ICDhFc (LILRB3胞内结构域, C末端与hFc融合) (from UniProt O75022 465-631) (Fc fusion)
2 | – | – | binds | binds | binds | CARECD-B3ICD-hFc (from UniProt P78310 20-237; O75022 444-631) (Fc fusion)
